Test results as given in PubChem BioAssay AID743266 (National Center for Advancing Translational Sciences (NCATS), 2014).
Out of some 410,000 compounds screened, about 310 (0.076%) were called active. Inconclusive results, whose numbers are uncertain, are shown with a selection of clear calls. Calls come from the whole dose curve; as a rule, active = well fitted activation curve with a large enough effect; inconclusive = small, poorly fitted or top-dose-only effect, or another doubt; inactive = no such curve, though single readings can be large or run the other way. Potencies of inconclusive entries are doubtful fits and often do not repeat.

Amino acid sequences for entries named in this document (tags omitted).
UniProt Q03431, whole entry, looked up: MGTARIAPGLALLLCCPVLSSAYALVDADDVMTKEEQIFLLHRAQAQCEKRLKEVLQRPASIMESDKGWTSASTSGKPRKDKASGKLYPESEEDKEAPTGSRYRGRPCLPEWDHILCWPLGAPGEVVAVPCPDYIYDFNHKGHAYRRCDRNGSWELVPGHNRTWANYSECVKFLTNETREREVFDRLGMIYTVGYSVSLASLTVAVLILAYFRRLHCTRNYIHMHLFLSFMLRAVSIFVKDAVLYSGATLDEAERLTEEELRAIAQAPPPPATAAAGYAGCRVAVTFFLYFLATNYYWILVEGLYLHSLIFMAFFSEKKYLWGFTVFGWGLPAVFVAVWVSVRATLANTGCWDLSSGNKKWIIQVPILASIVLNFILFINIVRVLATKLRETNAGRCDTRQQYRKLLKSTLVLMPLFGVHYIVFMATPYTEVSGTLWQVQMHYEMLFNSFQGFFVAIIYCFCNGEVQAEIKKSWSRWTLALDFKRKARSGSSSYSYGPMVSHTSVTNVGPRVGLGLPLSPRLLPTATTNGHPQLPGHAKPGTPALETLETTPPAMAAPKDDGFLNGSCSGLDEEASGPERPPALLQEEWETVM

Each compound was assayed against Parathyroid hormone/parathyroid hormone-related peptide receptor (Homo sapiens) (UniProt Q03431) (assay: qHTS for PTHR1 Agonists: Primary Screen). Conditions: HEK293 GP2 PTHR1 cells, GloSensor cAMP luminescence, 1 h; activation: at 115 µM (top of the series) unless noted; series mostly up to 115 µM.
Method in brief: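 HEK-293-derived GP2 cells expressing PTHR1 and a GloSensor cAMP reporter, 3,000/well, plated overnight, given luciferin plus IBMX (each 0.5 mM as added) for 1 h at 37 °C, then compound for 1 h at 37 °C. Luminescence was read after 15 min at room temperature.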
Note: nearly all actives have a fitted effect of over 55% in size.
Potency is the fitted concentration of half-maximal effect.

Row | Compound | Potency | activation
1 | Cc1cc(C(=O)NC2CCCCCC2)c2ccccc2n1 | inconclusive: 7.08 µM [activator, full curve, poor fit] | 
2 | NS(=O)(=O)c1cccc(NC(=O)CSc2nnc(-c3ccncc3)n2C2CC2)c1 | inconclusive: 44.7 µM [activator, partial curve, poor fit] | 
3 | Cc1cc(NCc2ccco2)nc2cc(O)ccc12 | inconclusive: 126 µM [activator, single point] | 
4 | Cc1cc(C)c(NC(=O)c2sc3nc4c(cc3c2N)C(=O)CC(C)(C)C4)c(C)c1 | inactive | 
5 | O=C(CCC(=O)CCN1CCCCC1)CCN1CCCCC1 | inactive | 
6 | O=C(NCCCN1CCCC1=O)c1ccc(OC(F)(F)F)cc1 | inactive | 
7 | CC(C)CC(C(=O)NC1CCCCC1)N(Cc1cccs1)C(=O)c1snc(C(N)=O)c1N (stereo not given) | inconclusive: 25.1 µM [activator, single point] | 
8 | CCOCCCn1c(SCC(=O)Nc2ccccc2Cl)nc2c(oc3ccccc32)c1=O | inactive | 
9 | OCCN(CCO)c1nc2ccccc2[nH]1 |  | inconclusive: 36.9% [activator]
10 | O=C(NCCS(=O)(=O)c1ccc(Br)cc1)c1ccc(Cl)cc1Cl | inconclusive: 17.8 µM [activator, partial curve, poor fit] | 
11 | CC(=O)c1ccc(NC(=O)N2CCN(c3cccc(Cl)c3)CC2)cc1 | inconclusive: 28.2 µM [activator, partial curve, poor fit] | 
12 | Cc1cc(C)c2c(=O)[nH]c(SCC(=O)Nc3ccc(Br)cc3)nc2n1 | inconclusive: 28.2 µM [activator, single point] | 
13 | COc1ccc2occ(C(C)=O)c2c1 | inactive | 
14 | NS(=O)(=O)c1ccc(CCNCc2cc(Br)ccc2OCc2ccccc2)cc1 | inactive | 
15 | O=C(OCc1nnc(-c2ccccc2)o1)c1cc(Cl)ccc1[N+](=O)[O-] | inconclusive: 35.5 µM [activator, single point] | 
16 | CN1C(=O)N(c2ccc(Cl)cc2)C(C)(O)CC1(C)C (stereo not given) |  | inconclusive: 79.6% [activator]
17 | O=C(N/N=C/c1cc([N+](=O)[O-])cc(Br)c1O)C12CC3CCC(CC(C3)C1)C2 | inactive | 
18 | CCN1CCc2c(sc(-n3cccc3)c2C(C)NC(=O)Nc2cc(Cl)c(OC)cc2OC)C1 (stereo not given) | inactive | 
19 | CCCCOC(=O)CSC1=C(C#N)C(c2ccccc2OCC)C(C#N)C(=O)N1 (stereo not given) | inconclusive: 0.0708 µM [activator, full curve, poor fit] | 
20 | CCOc1ccc(NC(=O)CSc2nnc(C(C)C)n2CC)cc1 | inconclusive: 10 µM [activator, partial curve, poor fit] | 
21 | Cc1cc(/C=N/NC(N)=S)c(C)n1-c1ccc(Cl)cc1 | inactive | 
22 | CCN1CCN(CC(=O)Nc2cc(C(F)(F)F)ccc2OCCOC)CC1 | inconclusive: 126 µM [activator, single point] | 
23 | Cc1ccc(N2CCN(C(=O)c3c(C)oc4ncnc(N5CCCCC5)c34)CC2)c(C)c1 | inactive | 

Row | Compound | Potency | activation
24 | CC(C)COc1ccc(Br)cc1CNC(C)(C)C | inconclusive: 126 µM [activator, single point] | 
25 | O=C(Nc1ccccc1Cl)NC1CCCCCCC1 | inactive | 
26 | COc1ccc(NC(=O)COC(=O)c2cnccn2)cc1Cl | inactive | 
27 | Cc1ccc(NC(=O)CCS(=O)(=O)c2ccc3nc(C)sc3c2)c(C)c1 | inconclusive: 22.4 µM [activator, partial curve, poor fit] | 
28 | CCOC(=O)c1ccc(N2CCN(c3ccc(F)cc3)CC2)c(NC(=O)Nc2ccc(CC)cc2)c1 |  | inconclusive: 32.6% [activator]
29 | CC(C)CCn1c(Oc2ccc(Cl)cc2)nc2c1c(=O)n(C)c(=O)n2C |  | inconclusive: 6.93% [activator] [at 57.5 µM]
30 | CC(CCCC(C)(C)O)NCc1cn[nH]c1-c1ccc2c(c1)OCO2 (stereo not given) |  | inconclusive: 10.4% [activator]
31 | Oc1ccccc1-c1cc(C(F)(F)C(F)F)[nH]n1 | inconclusive: 5.01 µM [activator, partial curve, poor fit] | 
32 | NS(=O)(=O)c1ccc(CCNC(=O)c2cccc(OC(F)F)c2)cc1 | inconclusive: 141 µM [activator, single point] | 
33 | Cc1ccc(C(C(=O)NCc2ccccc2)N(C(=O)c2csnn2)c2cccc3ccccc23)o1 (stereo not given) | inconclusive: 89.1 µM [activator, partial curve, poor fit] | 
34 | CCOc1ccc(N2CC(=O)N(c3ccc(OCC)cc3)CC2=O)cc1 |  | inconclusive: -54.3% [activator] [at 57.5 µM]
35 | COc1cc2c(cc1OC)C(C)N(C(=O)c1cc(C)on1)CC2 (stereo not given) | inconclusive: 100 µM [activator, partial curve, poor fit] | 
36 | C=CCOc1ccc(CNn2c(C)n[nH]c2=S)cc1OC |  | inconclusive: 16.3% [activator] [at 57.5 µM]
37 | CCOC(=O)c1cnc(-n2nc(C)cc2C)nc1N(CC)CC | inconclusive: 31.6 µM [activator, partial curve, poor fit] | 
38 | Nc1[nH]c(C(=O)c2ccccc2)c(-c2ccc(Cl)cc2)c1C(=O)NCc1ccco1 | inconclusive: 112 µM [activator, single point] | 
39 | NS(=O)(=O)c1ccc(CCNCC(=O)N2CCC(Cc3ccccc3)CC2)cc1 |  | inconclusive: 38.3% [activator]
40 | CCCn1c2ccccc2c2cnn(CC(=O)Nc3cc(OC)c(OC)c(OC)c3)c(=O)c21 | inconclusive: 112 µM [activator, single point] | 
41 | OCCC1CN(CCCc2ccccc2)CCN1CCc1ccccc1 (stereo not given) | inactive | 
42 | O=C(O)CC(C(=O)O)N1C(=O)/C(=C/c2ccc(-c3nc4ccccc4s3)o2)SC1=S (stereo not given) | inconclusive: 7.94 µM [activator, full curve, poor fit] | 
43 | COC(=O)c1ccc(/C=C2/SC(=S)N(CCC(=O)N3CCOCC3)C2=O)cc1 | inactive | 
44 | CC(OC(=O)CC1CC2CCC1C2)C(=O)Nc1ccc(N2CCOCC2)cc1 (stereo not given) | inconclusive: 7.08 µM [activator, partial curve] | 
45 | CCc1ccc(NC(=O)CNC(=O)Cn2c(C)cc3ccccc3c2=O)cc1 | inconclusive: 20 µM [activator, single point] | 

Record cards, as listed above.
`Cc1ccc(C(C(=O)NCc2ccccc2)N(C(=O)c2csnn2)c2cccc3ccccc23)o1` (stereo not given) in the list: Potency: inconclusive: 89.1 µM [activator, partial curve, poor fit]
`O=C(Nc1ccccc1Cl)NC1CCCCCCC1` in the list: Potency: inactive
